Laboratory results: PubChem BioAssay AID1224830 (NIAID, 2016)
Here is an unselected part of about 18,000 deposited reagents. About 2,900 of all reagents (16%) count as active. 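Calls are made per well; low scores hint the gene aids the LPS response, high scores that it dampens it.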 Repeated entries: four replicate wells of each siRNA pool.

Assay: 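Genes whose knock-down alters the TNF-alpha reporter response to LPS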 (primary screen)
Cell system: human THP-1 monocytic leukaemia cells, TNF dual-luciferase reporter clone, PMA-differentiated to macrophage-like cells
Reagent: siRNA pool against human genes, 50 nM
Timing: LPS for 4 h, given about 3 days after siRNA transfection
Challenge: bacterial LPS (TLR4 ligand), 10 ng/ml
Measured: 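Ratio of firefly to renilla light, scaled to the plate median and expressed as a robust z-score per replicate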
Scale: TNF reporter robust z-score: higher = stronger TNF reporter response to LPS
Rule for the call: 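Each well counts as active if its z-score is over 2.8 or under -1.5; controls are left without a call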

CYBRD1 (cytochrome b reductase 1) [SID315459551] | TNF reporter robust z-score: -1.39; call: inactive
CYBRD1 (cytochrome b reductase 1) [SID315459551] | TNF reporter robust z-score: -2.02; call: active
CYBRD1 (cytochrome b reductase 1) [SID315459551] | TNF reporter robust z-score: -0.91; call: inactive
OR4F5 (olfactory receptor family 4 subfamily F member 5) [SID315459291] | TNF reporter robust z-score: -0.27; call: inactive
OR4F5 (olfactory receptor family 4 subfamily F member 5) [SID315459291] | TNF reporter robust z-score: 0.07; call: inactive
OR4F5 (olfactory receptor family 4 subfamily F member 5) [SID315459291] | TNF reporter robust z-score: 0.04; call: inactive
OR4F5 (olfactory receptor family 4 subfamily F member 5) [SID315459291] | TNF reporter robust z-score: 0.4; call: inactive
FOXP2 (forkhead box P2) [SID315461099] | TNF reporter robust z-score: -0.4; call: inactive
FOXP2 (forkhead box P2) [SID315461099] | TNF reporter robust z-score: 0.37; call: inactive
FOXP2 (forkhead box P2) [SID315461099] | TNF reporter robust z-score: -0.51; call: inactive
FOXP2 (forkhead box P2) [SID315461099] | TNF reporter robust z-score: 0.7; call: inactive
ZNF747 (zinc finger protein 747) [SID315459119] | TNF reporter robust z-score: -1.26; call: inactive
ZNF747 (zinc finger protein 747) [SID315459119] | TNF reporter robust z-score: -1.08; call: inactive
ZNF747 (zinc finger protein 747) [SID315459119] | TNF reporter robust z-score: -1.21; call: inactive
ZNF747 (zinc finger protein 747) [SID315459119] | TNF reporter robust z-score: -1.2; call: inactive
NAA25 (N-alpha-acetyltransferase 25, NatB auxiliary subunit) [SID315459624] | TNF reporter robust z-score: 1.77; call: inactive
NAA25 (N-alpha-acetyltransferase 25, NatB auxiliary subunit) [SID315459624] | TNF reporter robust z-score: 0.63; call: inactive
NAA25 (N-alpha-acetyltransferase 25, NatB auxiliary subunit) [SID315459624] | TNF reporter robust z-score: 1.26; call: inactive
NAA25 (N-alpha-acetyltransferase 25, NatB auxiliary subunit) [SID315459624] | TNF reporter robust z-score: 1.75; call: inactive

2 entries from above in another layout:
{"gene symbol": "ZNF747 (zinc finger protein 747)", "PubChem SID": "SID315459119", "TNF reporter robust z-score": -1.26, "call": "inactive"}
{"gene symbol": "ZNF747 (zinc finger protein 747)", "PubChem SID": "SID315459119", "TNF reporter robust z-score": -1.08, "call": "inactive"}
